In PMC5519928 (Biopolymers, 2017):
HELM strings list residues between dots; [ac] is acetyl, [am] amide, other brackets name non-standard units. One purity is given for all peptides; the source may state it once.

Assay: general procedure: peptide synthesis; Fmoc-protected Rink Amide resin (loading 0.54 mmol g^-1); DIC (bromoacetic acid, sub-monomer method)
Conditions: whole synthesis, 220 nm, scale of the general procedure 0.1 mmol

Final HPLC purity, >95%:
PEPTIDE1{[NLys].[Nspe].[Nspe].[NLys].[Nspe].[Nspe].[NLys].[Nspe].[Nspe].[NLys].[Nspe].[Nspe].[am]}$$$$V2.0, PEPTIDE1{[NLys].[Nspe].[Nspe].[NLys].[Nspe].[Nspe].[NLys].[Nspe].[Nspe].[am]}$$$$V2.0, PEPTIDE1{[NLys].[Nspe].[Nspe].[NLys].[Nspe].[Nspe].[am]}$$$$V2.0, PEPTIDE1{[Nae].[Nphe].[Nphe].[Nae].[Nphe].[Nphe].[Nae].[Nphe].[Nphe].[Nae].[Nphe].[Nphe].[am]}$$$$V2.0, PEPTIDE1{[Nae].[Nspe].[Nspe].[Nae].[Nspe].[Nspe].[Nae].[Nspe].[Nspe].[Nae].[Nspe].[Nspe].[am]}$$$$V2.0
